In PubChem BioAssay AID504467 (National Center for Advancing Translational Sciences (NCATS), 2011):
The campaign covered roughly 330,000 compounds. About 7,700 (2.3%) were called active. The inconclusive results got no clear call from the source; some entries with a clear call stand among them for comparison. Calls follow the shape of the dose curve; as a rule, active = well fitted inhibition curve with a large enough effect; inconclusive = small, poorly fitted or top-dose-only effect, or effect the other way; inactive = flat fitted curve, though single readings scatter. Potencies beside an inconclusive call are fits to weak or partial responses and may not hold up.

Test: qHTS screen for small molecules that inhibit ELG1-dependent DNA repair in human embryonic kidney (HEK293T) cells expressing luciferase-tagged ELG1; also: nearly all actives have a fitted effect of over 55% in size
Conditions: HEK293T ELG1-luciferase reporter, luminescence, 16 h, DNA damage induced by 5-fluorouridine; series mostly up to 46.1 µM
How it was run: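 Step one: seed 2,000 cells per well. Step two: pin-transfer compound or DMSO alongside 5-fluorouridine. Step three: incubate 16 hr, 37 °C, 5% CO2. Step four: add ONE-Glo, wait 30 min, read luminescence.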
Potency is read from the fitted curve at half-maximal effect.

**Q.** For Cc1ccccc1NC(=O)c1ccc2c(c1)OCCO2, which Potency is on record?
**A.** inconclusive: 7.31 µM [activator, single point]

**Q.** With C=CCSc1cc(C)nc2c(-c3ccccc3)cnn12 as the compound, how does the Potency read?
**A.** inconclusive: 10.3 µM [activator, partial curve]

**Q.** Which Potency does the source give for COC(=O)c1ccc(NC(=O)c2cccc(N3C(=O)C4C5C=CC(C6CC56)C4C3=O)c2)cc1 (stereo not drawn) here?
**A.** inconclusive: 16.4 µM [activator, single point]

**Q.** With Cc1csc(NC(=O)c2cc(-c3ccco3)nc3ccccc23)n1 as the compound, how does the Potency read?
**A.** active: 20.6 µM

**Q.** For Cc1cccc(NN=C2c3ccccc3-c3ccccc32)c1, which Potency is on record?
**A.** inconclusive: 23.1 µM [activator, partial curve, poor fit]

**Q.** With CCN(C(=O)c1cc(S(=O)(=O)N2CCCCC2)c[nH]1)c1ccc(OC)cc1 as the compound, how does the Potency read?
**A.** inconclusive: 9.2 µM [inhibitor, partial curve, poor fit]

**Q.** For O=C(Nc1ncccc1O)c1ccc(OCC2CCCO2)cc1 (stereo not drawn), which Potency is on record?
**A.** inconclusive: 3.66 µM [activator, partial curve]

**Q.** Which Potency does the source give for COC(=O)c1ccc(CN2CCC(n3nccc3NC(=O)C3CCCC3)CC2)cc1 here?
**A.** inactive

**Q.** With Cn1c(NCc2ccccc2O)nc2ccccc21 as the compound, how does the Potency read?
**A.** inconclusive: 8.2 µM [activator, partial curve]

**Q.** Which Potency does the source give for CC(=O)Nc1ccc(S(=O)(=O)c2ccc([N+](=O)[O-])cc2)cc1 here?
**A.** inactive

**Q.** For CCOC(=O)C1(Cc2ccc(Cl)cc2)CCN(C(=O)c2ccoc2)CC1, which Potency is on record?
**A.** inactive

**Q.** For O=c1sc2ccccc2n1COc1ccc(Cl)cc1, which Potency is on record?
**A.** inconclusive: 16.4 µM [activator, partial curve]

**Q.** With CC(=O)c1cccc(OCC(O)CNCC2COc3ccccc3O2)c1 (stereo not drawn) as the compound, how does the Potency read?
**A.** inconclusive: 0.259 µM [inhibitor, single point]

**Q.** For Cc1nc(-c2ccc(C(=O)Nc3cccc(F)c3)cc2)cs1, which Potency is on record?
**A.** inconclusive: 0.461 µM [activator, partial curve]

**Q.** Which Potency does the source give for Cc1csc(NC(=O)/C=C/c2ccco2)n1 here?
**A.** inconclusive: 3.26 µM [activator, full curve]

**Q.** For CCOc1ccc(S(=O)(=O)N2CCN(C(=O)CCC(=O)N3CCOCC3)CC2)cc1, which Potency is on record?
**A.** inactive

**Q.** Which Potency does the source give for O=C(NCc1ccco1)c1cc(-c2ccccc2)c(N2CCOCC2)s1 here?
**A.** active: 20.6 µM

**Q.** With COc1ccc2oc(=O)c(C(=O)Nc3cccc(C)c3)cc2c1 as the compound, how does the Potency read?
**A.** inconclusive: 6.51 µM [activator, partial curve]

**Q.** For CN1CCS/C1=C\C=C1/SC(=S)N(CC(=O)O)C1=O, which Potency is on record?
**A.** inactive

**Q.** Which Potency does the source give for Cc1noc(C)c1CSc1nnc(-c2ccccc2)o1 here?
**A.** inconclusive: 29.1 µM [activator, single point]

**Q.** Which Potency does the source give for S=C(Nc1cccc(Cl)c1)Nc1ccccc1Oc1ccccc1 here?
**A.** inactive

**Q.** Which Potency does the source give for Cc1ccc(C(=O)/C=C/N(C)C)cn1 here?
**A.** inconclusive: 9.2 µM [activator, partial curve, poor fit]

**Q.** With O=C(COC(=O)c1ccc(-n2cnnn2)cc1)c1ccc(Br)cc1 as the compound, how does the Potency read?
**A.** inconclusive: 18.3 µM [activator, single point]

**Q.** For Cc1cccc(OCC(=O)N/N=C/c2cn[nH]c2-c2ccc(Cl)c(Cl)c2)c1, which Potency is on record?
**A.** inconclusive: 16.4 µM [inhibitor, partial curve, poor fit]

**Q.** With CCOC(=O)N1CCN(C(=S)NC(=O)c2cccc(OC)c2)CC1 as the compound, how does the Potency read?
**A.** inconclusive: 29.1 µM [activator, single point]

**Q.** With C/C(CC(=O)NC1CCCCC1)=N\NC(=O)c1ccc(Br)cc1 as the compound, how does the Potency read?
**A.** inactive

**Q.** Which Potency does the source give for Cn1c(C(=O)N2CCN(c3ccc(Cl)cc3)CC2)cc2c(=O)[nH]c3ccccc3c21 here?
**A.** inconclusive: 29.1 µM [inhibitor, single point]

**Q.** For CC1CN(c2ccc([N+](=O)[O-])cc2C#N)CC(C)O1 (stereo not drawn), which Potency is on record?
**A.** inconclusive: 16.4 µM [inhibitor, partial curve, poor fit]

**Q.** For Cc1c(C(C)C)c(=O)n(-c2ccc(S(=O)(=O)NC3CC3)cc2)n1C, which Potency is on record?
**A.** inconclusive: 23.1 µM [inhibitor, partial curve, poor fit]

**Q.** For COc1ccc(-c2csc3[nH]c(=S)n(-c4ccccc4)c(=O)c23)cc1OC, which Potency is on record?
**A.** inactive

**Q.** For Cn1c(Cl)c(C(=O)Nc2ccc(Cl)cc2)c2ccccc21, which Potency is on record?
**A.** inactive

**Q.** With Cc1cc(/C=C(\C#N)C(=O)OCC(=O)NC(=O)NC(C)(C)C)c(C)n1CCC(C)C as the compound, how does the Potency read?
**A.** inconclusive: 11.6 µM [inhibitor, partial curve, poor fit]

**Q.** Which Potency does the source give for CC(NC(=O)Cc1ccc([N+](=O)[O-])cc1)c1ccc2c(c1)OCO2 (stereo not drawn) here?
**A.** inactive

**Q.** Which Potency does the source give for CC(C)NC(=O)C(C)Oc1ccc(S(=O)(=O)NCc2ccc3c(c2)OCO3)cc1 (stereo not drawn) here?
**A.** inconclusive: 0.447 µM [activator, full curve, poor fit]

**Q.** With COc1ccc(-c2cc(-n3c(C(F)(F)F)nc4ccccc43)n(CCC#N)n2)cc1 as the compound, how does the Potency read?
**A.** inconclusive: 29.1 µM [inhibitor, single point]

**Q.** Which Potency does the source give for CCN1C(=O)/C(=C/c2cc(C)n(C)c2C)SC1=Nc1ccc(OC)cc1 here?
**A.** inconclusive: 29.1 µM [inhibitor, single point]

**Q.** For Cc1cnc(C(=O)OCc2cc(=O)n3c(C)cccc3n2)cn1, which Potency is on record?
**A.** inconclusive: 20.6 µM [activator, partial curve, poor fit]

**Q.** Which Potency does the source give for COc1ccc(CNC(=O)C(C)n2nc(C)c3c(C)n(-c4ccc(C)cc4)nc3c2=O)cc1 (stereo not drawn) here?
**A.** inconclusive: 13 µM [inhibitor, partial curve]

**Q.** Which Potency does the source give for CN(C)c1nc(N/N=C/c2ccccc2O)nc(Nc2ccc(F)cc2)n1 here?
**A.** inconclusive: 18.3 µM [inhibitor, single point]

**Q.** For COC(=O)Cc1ccc(NC(=O)c2ccccc2Br)cc1, which Potency is on record?
**A.** inconclusive: 29.1 µM [activator, single point]

**Q.** For COc1ccc2cc(C(C)C(=O)OC(C)C)ccc2c1 (stereo not drawn), which Potency is on record?
**A.** inconclusive: 32.6 µM [activator, single point]

**Q.** For CCOC(=O)Cn1c(N2CCCCCC2)nc2c1c(=O)[nH]c(=O)n2C, which Potency is on record?
**A.** inconclusive: 32.6 µM [activator, partial curve, poor fit]

**Q.** For Cc1cccc(CC(C)NC(=O)c2cc(COc3ccc(C)c(C)c3)on2)n1 (stereo not drawn), which Potency is on record?
**A.** inconclusive: 16.4 µM [activator, partial curve]
